# Measurements reported in the supplement of paper PMC12578635.
# ± gives the standard deviation of the averaged measurements. Some of the results follow. Single values are uncertain, as repeats are few or missing.
# System: RAW 264.7 macrophages infected with S. aureus JE2-lux
# Test: host macrophage viability (CellTiter-Fluor) relative to DMSO vehicle; higher = more viable host cells
# Settings: 10 µM; treatment time 4 h; gentamicin 50 µg/ml
row,Structure (SMILES),host macrophage viability
1,C=CCn1c(SCC(=O)Nc2nccs2)nc2sc(C)c(C)c2c1=O,118%
2,Clc1ccc2nc(Nc3nc4cc5c(cc4s3)OCO5)sc2c1,132 ± 17%
3,CCCCCn1c(=S)[nH]c2cc(C(=O)NCc3ccc4c(c3)OCO4)ccc2c1=O,108%
4,O=c1c2sc3ccccc3c2[nH]c(=S)n1CCc1c[nH]c2ccccc12,124%
5,Cc1cc(C(=O)CSc2nnc3ccccn23)c(C)n1Cc1ccccc1,132%
6,O=C(CSc1nnc2c(n1)[nH]c1ccc(Cl)cc12)NCc1ccc2c(c1)OCO2,106%
7,Cc1noc(C)c1CSc1ncnc2sc3c(c12)CCCC3,118 ± 7.8%
8,Cc1cnc(C(=O)N2CCC(c3nc4c(c(N5CCCC5)n3)CCC4)CC2)cn1,111%
9,CC(=O)Nc1ccc(Nc2c3c(nc4ncnn24)CCC3)cc1,103%
10,Cc1cc(C)c2c(n1)sc1c(=O)n(-c3ccc(C(=O)Nc4ccc(C)c(F)c4)cc3)cnc12,114%
11,Cc1c(-c2ccccc2)n[nH]c1C(=O)NC(c1ccccc1)c1cccnc1 (stereo not drawn),113%
12,Cc1ccc(-c2cc3nc(C)cc(N4CCC(C(=O)Nc5ccc(F)c(F)c5)CC4)n3n2)cc1,116%
13,O=C(CCn1c(-c2ccncc2)cc2cccnc21)Nc1ccccc1F,101%
14,COc1cc(OC)cc(-c2noc(Cn3c(=O)[nH]c4cc5c(cc4c3=O)OCO5)n2)c1,112%
15,O=c1nc(SCc2ccc([N+](=O)[O-])cc2)c2c(n1Cc1cccnc1)CCC2,129%
16,CSc1nnc(C)c(=O)n1COC(=O)c1ccc2ccccc2c1,103%
17,CCCc1cc(CNC(=O)C(C)N2C(=O)NC(C)(C)C2=O)on1 (stereo not drawn),107%
18,COc1cccc(C(=O)Oc2coc(CSc3ncccn3)cc2=O)c1,108%
19,COC(=O)C1=C(C)Nc2nc(SCc3ccc([N+](=O)[O-])cc3)[nH]c(=O)c2C1c1cccnc1 (stereo not drawn),114%
20,CCNc1ncnc2c1c(-c1ccccc1)cn2-c1ccccc1,121%
21,Cc1nc2ccccc2c(=O)n1-c1cccc(NS(=O)(=O)c2ccc(F)c(C(F)(F)F)c2)c1,121%
22,COc1ccc(NC(=O)c2ccc(SCCN3CCCCC3)nc2)cc1OC,112%
23,Cc1ccc(NC(=O)C(=O)NCc2ccc3c(c2)OCO3)cc1F,124%
24,CCCSc1nnc(NC(=O)c2cc(-c3ccc4c(c3)CC(C)O4)on2)s1 (stereo not drawn),115%
25,COc1ccc(C2=C(C)C(N3CCC(C(=O)N4CCc5ccccc5C4)CC3)=NS2(=O)=O)cc1,123%
26,COc1ccc(Cl)cc1Nc1ncnc2c1c(C)c(C)n2-c1ccccc1,101%
27,NC(=O)Cn1c2ccc([N+](=O)[O-])cc2c2cc([N+](=O)[O-])ccc21,102%
28,CC(=O)N1CCN(C2=NC(=O)/C(=C\c3cccc([N+](=O)[O-])c3)S2)CC1,109%

# Rewritten with bars between the fields: entries from further up
row | Structure (SMILES) | host macrophage viability
1 | C=CCn1c(SCC(=O)Nc2nccs2)nc2sc(C)c(C)c2c1=O | 118%
12 | Cc1ccc(-c2cc3nc(C)cc(N4CCC(C(=O)Nc5ccc(F)c(F)c5)CC4)n3n2)cc1 | 116%
